Assay results: patent publication US20050209148A1 (RINAT NEUROSCIENCE, published 2005)
Results are given in words; binding and its absence hold for the method and conditions named. Some entries that bind do so weakly or less than the wild type.

Protein sequences, listed by entry. Tags and fused reporters are not part of them. Residues count along the entry.
UniProt Q16620, residues 32-430: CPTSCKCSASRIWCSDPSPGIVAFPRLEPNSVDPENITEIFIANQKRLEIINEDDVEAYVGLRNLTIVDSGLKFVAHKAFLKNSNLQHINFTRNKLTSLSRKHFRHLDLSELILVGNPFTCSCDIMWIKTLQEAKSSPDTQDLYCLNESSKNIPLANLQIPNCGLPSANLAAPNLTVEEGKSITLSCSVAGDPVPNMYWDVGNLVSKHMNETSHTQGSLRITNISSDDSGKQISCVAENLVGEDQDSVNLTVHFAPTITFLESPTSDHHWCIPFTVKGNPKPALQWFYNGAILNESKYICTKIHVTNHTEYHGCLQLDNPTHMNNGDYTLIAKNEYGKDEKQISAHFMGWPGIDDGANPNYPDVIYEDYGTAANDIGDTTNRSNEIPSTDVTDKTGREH

Target: human TrkB receptor (as used in the BIAcore assay) (human) (UniProt Q16620)
Test: BIAcore (SPR), in the presence of Mab1241 Fab; data not shown

binding: binds
B1: human NT-4/5 (mature human neurotrophin-4/5) (ligand)
chain: GVSETAPASRRGELAVCDAVSGWVTDRRTAVDLRGREVEVLGEVPAAGGSPLRQYFFETRCKADNAEEGGPGAGGGGCRGVDRRHWVSECKAKQSYVRALTADAQGRVGWRWIRIDTACVCTLLSRTGRA
